# Test results: publication doi:10.1101/2021.06.18.449075
# These are yes or no findings as the source states them, for the method shown. Binding seen in cells or lysates may run through a third protein. Some results given as binding are weak or reduced against the parent protein; the word gives no strength. Sequences can lack the tags named with a protein.
# T1: His-tagged OsSRT1 (rice (Oryza sativa indica)) (UniProt B8ARK7)
# T1 sequence: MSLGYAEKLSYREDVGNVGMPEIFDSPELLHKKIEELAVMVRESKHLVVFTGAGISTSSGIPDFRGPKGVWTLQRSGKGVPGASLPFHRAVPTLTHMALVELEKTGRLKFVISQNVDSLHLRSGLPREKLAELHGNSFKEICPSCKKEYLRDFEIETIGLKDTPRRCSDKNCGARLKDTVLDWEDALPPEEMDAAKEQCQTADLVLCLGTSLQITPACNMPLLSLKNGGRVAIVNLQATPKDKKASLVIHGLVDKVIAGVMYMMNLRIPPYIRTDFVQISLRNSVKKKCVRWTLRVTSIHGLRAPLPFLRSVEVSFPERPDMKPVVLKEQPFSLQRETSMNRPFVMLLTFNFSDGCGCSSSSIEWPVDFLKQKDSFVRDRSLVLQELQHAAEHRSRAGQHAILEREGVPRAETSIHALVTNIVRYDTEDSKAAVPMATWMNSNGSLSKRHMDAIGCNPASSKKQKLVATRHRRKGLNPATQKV
# Target: T1, His-tagged OsSRT1 (rice (Oryza sativa indica))
# Experiment: pull-down
binder,measurement,value
"OsPARP1 (enzyme, UniProt Q7EYV7 1-977) MAAPPKAWKAEYAKSGRSSCKSCRSPIGKDQLRLGKMVQATQFDGLMPMWNHASCILSKKNQIKSVDDVEGIDTLRWDDQEKIRNYVGSAPATASSAAAISDKCTIEVAKSARTSCRRCGEKIKKGTVRVSSKLEGQGWYHASCFLEMSPAATVENFSGWEILSHEDKRAVLDLVKKDAPSSGQTSSKGSKRKNNQNDIHDCKAPKIIRSISEGTAEDKGKAVVSHDSNANSSDLQEKLKEQSDTLWKLKDELKKHVSTAELRNMLEANGQDTSGPERHLLDRCADGMLFGALGTCPVCSSFLYYHGGQYHCSGYVSEWSKCTYSTTEPVRSKKKWKIPDEMDNGYLTKWFKSQKAKKPERVLPPMSPEKSLCQSTQQNRSFLSEGLDKLRVSIVGQSKDVVDGWKQKLKDAGANFNATVTKDSSCLVLCSELESENAEVKKARRLKIPILREGYLGECIRKNRVLPFDLYKVEAALESSKGGTMTVKVKGRSAVHESSGLQDTGHILEDGKSIYNTTLNMSDLTRGVNSYYILQVIEEDNGSDCYVFRKWGRVGNEKIGGTKLEEMSKIHAIQEFRRLFLEKTGNPWEAWEQKTNFQKQPGKFYPLDIDYGVRQGPKRKDIDKMKSSLPPQLLELMNMLFNIETYRAAMLEFKINMSEMPLGKLSKENIQKGFEALTEIQNLLGNTNNQELAVRESLIVAASNRFFTLIPSIHPHIIQDEDDLMVKVKMLEALQDIEIASKLVGFDSDNDESLDDKYKKLRCAITPLPHDCEDYKLVEKYLLNTHAPTHKEWSLELEEVFSLDRDGEFSKYSRYKNNLHNKMLLWHGSRLTNYVGILSQGLRIAPPEAPVTGYMFGKGLYFADLVSKSAQYCYVDRKNPVGLMLLSEVALGDMYELKKATSMDKPPRGKHSTKGLGKTVPLESEFAKWRDDVVVPCGKPVPASIKTSELMYNEYIVYNTSQVKMQYLLKVRFHHKR",binding,binds
